{"source": "PubChem BioAssay AID493014", "about": "(National Center for Advancing Translational Sciences (NCATS), 2011)", "note": "Hit rate of the full screen: of about 340,000 compounds, about 170 (0.05%) were called active. The inconclusive results got no clear call from the source; some entries with a clear call stand among them for comparison. The call rests on the fitted dose curve; in most records, active means well fitted inhibition curve with a large enough effect in the signal ratio, with a control signal flat (not every such curve was filed as active); inconclusive means small, poorly fitted or top-dose-only effect, or effect the other way, or a change in a side signal; inactive means flat fitted curve, though single readings scatter; the % refers to the signal ratio. Potencies beside an inconclusive call are fits to weak or partial responses and may not hold up. Potency means the concentration at half of the fitted maximal effect.", "data": [{"test": "qHTS Assay to Find Inhibitors of Chronic Active B-Cell Receptor Signaling;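 on activity change, negative = inhibition: plate controls were basal doxycycline-induced cells for no effect and cells given 10 µM MG132 for full effect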", "conditions": "ABC-DLBCL IkBa-CBG/CBR reporter, luminescence ratio (green luciferase fused to IkBa over red control in TMD8 lymphoma cells), 4 h; activity change, negative = inhibition: at 46.1 µM (top of the series) unless noted", "in_short": "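TMD8 human ABC-DLBCL cells with doxycycline-inducible IκBα–green luciferase fusion and unfused red luciferase, in 0.5% FBS medium; compounds up to 46 uM, 4 h at 37C. Green/red luminescence ratio, filter-overlap corrected, fitted to concentration-response curves.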", "values": [{"smiles": "Cc1cc(Nc2ccccc2)n(-c2ccccc2)n1", "activity change, negative = inhibition": "inconclusive: 4.77%"}, {"smiles": "O=C1CCCC2=C1C1O[C@](CCCCN3C(=O)c4ccccc4C3=O)(Cc3ccccc31)O2", "activity change, negative = inhibition": "inactive: -5.73% [at 9.22 µM]"}, {"smiles": "COC(=O)c1cc(OC)c(OC)cc1NC(=O)Nc1cccc(C(C)=O)c1", "activity change, negative = inhibition": "inconclusive: 5.37%"}, {"smiles": "CCOC(=O)C1(Cc2ccc(Cl)cc2)CCN(Cc2ccon2)CC1", "activity change, negative = inhibition": "inconclusive: 4.1%"}, {"smiles": "CSc1nc(N2CCOCC2)c2sccc2n1", "activity change, negative = inhibition": "inconclusive: -23.7%"}, {"smiles": "CCCN1C(=O)/C(=C/c2c(NCCCOCC)nc3c(C)cccn3c2=O)SC1=S", "activity change, negative = inhibition": "inactive"}, {"smiles": "C[C@H](NC(=O)c1[nH]cnc1C(=O)N[C@H](C)c1ccccc1)c1ccccc1", "activity change, negative = inhibition": "inconclusive: -6.98%"}, {"smiles": "COc1ccc(NC(=O)c2ccccc2NC(=O)c2ccco2)c(OC)c1", "Potency": "inconclusive: 10 µM [falling, partial curve]"}, {"smiles": "CCn1ccc2cc(OC)ccc2c1=S", "Potency": "inconclusive: 22.4 µM [falling, single point]"}, {"smiles": "O=C(c1noc2c1CCc1ccccc1-2)N1CCc2ccccc2C1", "activity change, negative = inhibition": "inconclusive: -10.5%"}, {"smiles": "COc1ccc(NC(=O)CCN2C(=O)NC3(CCCC3)C2=O)cc1Cl", "activity change, negative = inhibition": "inconclusive: 0.699%"}, {"smiles": "Cc1ccc2c(n1)sc1c(N)ncnc12", "activity change, negative = inhibition": "inconclusive: -10.6%"}, {"smiles": "CCOc1cc(CNc2ccc3[nH]c(=O)[nH]c3c2)ccc1OCC(=O)NC(C)(C)C", "activity change, negative = inhibition": "inconclusive: 9.03%"}, {"smiles": "CCOc1cc2[nH]c(=S)n(CCc3ccc(OC)c(OC)c3)c(=O)c2cc1OCC", "activity change, negative = inhibition": "inconclusive: 2.55%"}, {"smiles": "CCc1ccccc1NC(=O)CSc1ncccc1C(=O)O", "activity change, negative = inhibition": "inactive"}, {"smiles": "O=C(COC(=O)c1ccccn1)c1ccc([N+](=O)[O-])cc1", "activity change, negative = inhibition": "inconclusive: -16.3%"}, {"smiles": "COc1ccc(C2=Nc3ccccc3OC2)cc1", "activity change, negative = inhibition": "inconclusive: -15.8%"}, {"smiles": "COc1ccc(Nc2ncnc3c2c(-c2ccccc2)cn3-c2ccc(C)c(Cl)c2)cc1OC", "activity change, negative = inhibition": "inactive"}, {"smiles": "O=C(Nc1ccccc1C(=O)N1CCCCCC1)c1cccc([N+](=O)[O-])c1", "Potency": "inconclusive: 28.2 µM [falling, partial curve]"}, {"smiles": "Cc1nn(-c2ccccc2)c(C)c1-c1ccccc1O", "activity change, negative = inhibition": "inconclusive: 1.85%"}, {"smiles": "COc1cc(-c2ccc(NC(=O)NC3CC3)c(OC)c2)ccc1NC(=O)NC1CC1", "Potency": "inconclusive: 15.8 µM [rising, partial curve, poor fit]"}, {"smiles": "CCOC(=O)C[N+](C)(C)CCOC1CC2CCC1(C)C2(C)C", "note": "(centres undefined)", "Potency": "inconclusive: 17.8 µM [falling, partial curve, poor fit]"}, {"smiles": "Cc1ccc(S(=O)(=O)N2CCN(C(=O)C3CC(=O)N(c4ccc5c(c4)OCCO5)C3)CC2)cc1", "note": "(centres undefined)", "activity change, negative = inhibition": "inconclusive: 12%"}, {"smiles": "CC(=O)c1ccccc1OCC(O)CN1CCN(CCN2C(=O)c3cccc4cccc(c34)C2=O)CC1", "note": "(centres undefined)", "Potency": "inconclusive: 11.2 µM [falling, single point]"}, {"smiles": "Cc1c(CCC(=O)O)c(=O)oc2cc3occ(-c4ccc(F)cc4)c3cc12", "activity change, negative = inhibition": "inconclusive: -2.22%"}, {"smiles": "Cc1nnc(SCc2ccc(C(=O)Nc3cc(Cl)ccc3C)cc2)s1", "activity change, negative = inhibition": "inconclusive: -17.2%"}, {"smiles": "O=C(N/N=C/c1ccc([N+](=O)[O-])o1)c1cn(-c2ccccc2)nc1-c1ccc(Cl)cc1", "activity change, negative = inhibition": "inactive"}, {"smiles": "CCOC(=O)N1CCN(C(=O)COc2cccc3c2CCN(Cc2cccc(C)c2)C3=O)CC1", "Potency": "inconclusive: 20.6 µM [falling, partial curve]"}, {"smiles": "COc1ccc2c(=O)c(-c3ccc(OC)c(OC)c3)coc2c1", "Potency": "inconclusive: 35.5 µM [falling, single point]"}, {"smiles": "NC(=O)c1cc(C(=O)Cc2ccccc2)c[nH]1", "activity change, negative = inhibition": "inconclusive: 3.01%"}, {"smiles": "O=C(Cc1ccc(Cl)cc1)Nc1ncccn1", "activity change, negative = inhibition": "inconclusive: -2.18%"}, {"smiles": "Cc1c(C(=O)NCC2CCCO2)oc2ccc3c(c12)C(=O)CC(C)(C)O3", "note": "(centres undefined)", "activity change, negative = inhibition": "inactive"}, {"smiles": "CCC1Cc2c(nc(N)c3c(N)nc(N4CCOCC4)c(C#N)c23)O1", "note": "(centres undefined)", "activity change, negative = inhibition": "inconclusive: 9.13%"}, {"smiles": "C=CCNc1ncnc2c1cnn2-c1cccc(C)c1", "activity change, negative = inhibition": "inconclusive: -1.66%"}, {"smiles": "Cc1nc(COc2ccc(C(=O)NCc3ccccc3CN3CCCCC3)cc2)cs1", "activity change, negative = inhibition": "inactive"}, {"smiles": "O=C(/C=C/c1ccc(Br)cc1)NC(=O)c1ccccc1O", "Potency": "inconclusive: 3.98 µM [falling, full curve]"}, {"smiles": "CCCCCCn1c(SCCN2CCOCC2)nc2c1c(=O)[nH]c(=O)n2C", "activity change, negative = inhibition": "inconclusive: -0.805%"}, {"smiles": "COc1cc(-c2nc3ccccn3c2/N=C/c2cccc(OC)c2O)ccc1O", "activity change, negative = inhibition": "inconclusive: -9.66%"}, {"smiles": "O=C(Nc1ccc(N2CCCC2)cc1)c1ccccc1[N+](=O)[O-]", "Potency": "inconclusive: 20 µM [falling, partial curve]"}, {"smiles": "CC(CC(=O)O)CC(=O)Nc1cc(C(F)(F)F)cc(C(F)(F)F)c1", "note": "(centres undefined)", "activity change, negative = inhibition": "inconclusive: 7.96%"}, {"smiles": "N/C(=N\\OC(=O)c1ccco1)c1ccccn1", "Potency": "inconclusive: 28.2 µM [falling, single point]"}, {"smiles": "Cc1nn(C)c(Oc2cccc(C(F)(F)F)c2)c1C#N", "activity change, negative = inhibition": "inconclusive: -47.4%"}, {"smiles": "CCOC(=O)Cc1nc2cc(Cl)ccc2o1", "activity change, negative = inhibition": "inconclusive: 18.4%"}, {"smiles": "Cc1cc(COc2ccccc2)oc1C(=O)O", "activity change, negative = inhibition": "inconclusive: 5.8%"}, {"smiles": "O=C(c1cccc(OC(F)F)c1)N1CCN(c2ncccn2)CC1", "activity change, negative = inhibition": "inconclusive: 5.78%"}, {"smiles": "CCN1C(=O)/C(=C/c2cnn(CC)c2C)SC1=S", "activity change, negative = inhibition": "inactive"}, {"smiles": "CCOC(=O)N1CC=C2C(C#N)=C(N)C(C#N)(C#N)[C@H](c3ccc(OCC)c(OCC)c3)[C@H]2C1", "Potency": "inconclusive: 7.31 µM [falling, partial curve]"}, {"smiles": "Cn1ccs/c1=N\\C(=O)Nc1ccccc1", "Potency": "inconclusive: 25.1 µM [falling, partial curve]"}, {"smiles": "CCC(C(=O)OCC(=O)N(CCOC)c1c(N)n(Cc2ccccc2)c(=O)[nH]c1=O)c1ccccc1", "note": "(centres undefined)", "activity change, negative = inhibition": "inactive"}, {"smiles": "Cc1cc(/C=C(\\C#N)C(=O)Nc2ccccc2)c(C)n1-c1ccc2c(c1)OCO2", "activity change, negative = inhibition": "inactive"}, {"smiles": "O=C(NC1=NN(c2ccccc2)CC1)Nc1ccccc1F", "Potency": "inconclusive: 22.4 µM [falling, partial curve]"}, {"smiles": "C/C(=N\\NC(=O)c1cc(O)ccc1O)c1cccc(NC(=O)c2ccc(Cl)cc2)c1", "Potency": "inconclusive: 22.4 µM [falling, single point]"}, {"smiles": "COCCCN1C(=O)C(=O)/C(=C(/O)c2ccccc2)C1c1ccc2c(c1)OCO2", "note": "(centres undefined)", "activity change, negative = inhibition": "inconclusive: 9.34%"}, {"smiles": "COC(=O)COc1ccc2c(c1)O/C(=C\\c1cccc([N+](=O)[O-])c1)C2=O", "activity change, negative = inhibition": "inconclusive: 8.12%"}, {"smiles": "COc1cc(/C=C(/C(=O)c2cccs2)c2nc3ccccc3[nH]2)cc(OC)c1O", "Potency": "inconclusive: 32.6 µM [rising, single point]"}, {"smiles": "COc1ccc(Cc2nnc(NC(=O)c3ccccc3F)s2)cc1OC", "activity change, negative = inhibition": "inconclusive: 6.51%"}, {"smiles": "Oc1c(C(c2ccccc2)N2CCN(c3cccc(Cl)c3)CC2)sc2nc(-c3ccco3)nn12", "note": "(centres undefined)", "activity change, negative = inhibition": "inactive"}, {"smiles": "O=C1C=C(c2ccc(C(=O)O)cc2)C[C@@H](c2ccc(F)cc2)C1", "activity change, negative = inhibition": "inactive"}, {"smiles": "C=CCNC(=S)NNC(=O)c1cc(O)ccc1O", "activity change, negative = inhibition": "inactive"}, {"smiles": "CCn1c(SCC(=O)N2CCN(c3ccccc3)CC2)nc2c(c1=O)SC(C)C2", "note": "(centres undefined)", "activity change, negative = inhibition": "inconclusive: 8.09%"}, {"smiles": "Cc1ccc(C)c(N(CC(=O)N/N=C/c2ccc(-c3ccc([N+](=O)[O-])cc3)o2)S(=O)(=O)c2ccccc2)c1", "activity change, negative = inhibition": "inactive"}, {"smiles": "COc1ccc(-c2csc3nc(C)nc(N4CCC(C)CC4)c23)cc1OC", "activity change, negative = inhibition": "inconclusive: 7.2%"}, {"smiles": "CCOc1ccc(NC(=O)CSc2nnc(-c3cc(C)[nH]n3)n2N)cc1", "activity change, negative = inhibition": "inconclusive: -13%"}, {"smiles": "Cc1nc2ccccc2n1C1CC(=O)N(N(C)C)C1=O", "note": "(centres undefined)", "activity change, negative = inhibition": "inconclusive: -22.4%"}, {"smiles": "COc1ccc(NC(=O)Cc2ccc(Cl)c(Cl)c2)cn1", "activity change, negative = inhibition": "inconclusive: 16.6%"}, {"smiles": "O=C(CSC1=NC(=O)C(Cc2ccccc2)C(=O)N1)NC1CCCCC1", "note": "(centres undefined)", "activity change, negative = inhibition": "inconclusive: 5.27%"}, {"smiles": "CCCc1nc2scc(-c3ccc(C)cc3)c2c(=O)n1N", "activity change, negative = inhibition": "inconclusive: 19%"}, {"smiles": "CCOC(=O)c1c(C)[nH]c(C)c1S(=O)(=O)NCCc1sccc1C", "activity change, negative = inhibition": "inactive"}, {"smiles": "Cc1noc(C)c1CSc1ncnc2ccccc12", "activity change, negative = inhibition": "inconclusive: -20%"}, {"smiles": "CCOC(=O)c1c(C)oc2c1c(C=NCc1ccccn1)c(O)c1ccccc12", "activity change, negative = inhibition": "inactive"}, {"smiles": "COc1cc(/C=C/C(=O)N(C)CC(=O)Nc2ccccc2Br)cc2c1OCCO2", "activity change, negative = inhibition": "inconclusive: 1.82%"}, {"smiles": "Cc1oc2cc3oc(=O)c4c(c3cc2c1C)CCC4", "activity change, negative = inhibition": "inactive"}, {"smiles": "COc1cccc(/C=C2\\CCc3ccccc3C2=O)c1", "Potency": "inconclusive: 35.5 µM [falling, single point]"}, {"smiles": "CCN(CC(=O)Nc1c(F)cccc1F)C(=O)Cc1ccc2c(c1)OCCO2", "activity change, negative = inhibition": "inactive"}, {"smiles": "Cc1ccc(C(=O)NNC2=NCCC2)cc1", "activity change, negative = inhibition": "inactive"}, {"smiles": "O=C(NC(Cc1ccccc1)C(=O)NC1CC1)OCc1ccccc1", "note": "(centres undefined)", "activity change, negative = inhibition": "inconclusive: 5.11%"}, {"smiles": "O=C(Nc1nc(-c2ccccn2)cs1)c1ccc(-c2ccccc2F)o1", "activity change, negative = inhibition": "inconclusive: -14%"}, {"smiles": "Cc1ccccc1N1C(=O)c2ccccc2N2C(=O)c3ccccc3C12", "note": "(centres undefined)", "activity change, negative = inhibition": "inactive"}, {"smiles": "CC(C)C(C)NC(=O)COC(=O)c1cc(S(=O)(=O)N(C)C)ccc1N1CCCC1", "note": "(centres undefined)", "activity change, negative = inhibition": "inconclusive: -2.67%"}, {"smiles": "O=c1c2ccccc2oc2nc(-c3ccco3)n(CCc3ccccc3)c(=O)c12", "activity change, negative = inhibition": "inconclusive: -11%"}, {"smiles": "CCC(C)(C(=O)NC1CCCC1)N(Cc1ccco1)C(=O)c1ccc2c(c1)OCO2", "note": "(centres undefined)", "activity change, negative = inhibition": "inactive"}, {"smiles": "Cc1ccc(C2Oc3ccccc3C3=C2C(c2cccs2)n2ncnc2N3)cc1", "note": "(centres undefined)", "activity change, negative = inhibition": "inconclusive: -14%"}, {"smiles": "CN1c2ccccc2-c2nc3ccccc3n2C1c1cccs1", "note": "(centres undefined)", "activity change, negative = inhibition": "inconclusive: -1.68%"}, {"smiles": "COc1ccccc1-n1c(SCC(=O)Nc2ccc(NC(C)=O)cc2)nc2c([nH]c3ccccc32)c1=O", "activity change, negative = inhibition": "inconclusive: -18%"}]}]}
